Data published in PMC6468293, “Double autoinhibition mechanism of signal transduction ATPases with numerous domains (STAND) with a tetratricopeptide repeat sensor” (Nucleic Acids Research, 2019).
No constants are given. Whether binding was seen depends on the method and setting. Where a sequence is shown, tags or fusion partners need not be part of it.

Tests used:
[1] = biological target: His6-tagged MalT (Escherichia coli maltose system regulator), wild type (E. coli) (UniProt P06993); experiment: SEC; analytical Superdex 200 PC3.2/30, room temperature; reducing conditions; without the inducer maltotriose (Supplementary Figure S9); both purified
[2] = biological target: His6-tagged MalT (Escherichia coli maltose system regulator), wild type (E. coli) (UniProt P06993); experiment: condition: only at 10 μM (with ADP, no maltotriose); SEC; analytical Superdex 200 (column with a shifted calibration curve), same buffer with 0.1 mM ADP, no maltotriose; R171E variants at the indicated concentrations up to 60 μM; wt MalT at 10 μM as monomer reference; both purified
[3] = biological target: His6-tagged MalT (Escherichia coli maltose system regulator), wild type (E. coli) (UniProt P06993); experiment: condition: only at low concentration (with ADP, no maltotriose); SEC; analytical Superdex 200, room temperature; Tris-HCl 50 mM pH 8.0, 10% sucrose, 0.033 M K3 citrate, 10 mM Mg acetate, 0.1 mM EDTA, 1 mM DTT, 0.1 mM ADP; no maltotriose; low protein concentration (2.5 μM); both purified

binding [2]: no binding | binding [3]: no binding
B1: His6-tagged MalT (Escherichia coli maltose system regulator), wild type (natural protein, E. coli, UniProt P06993 1-901, looked up)
chain: MLIPSKLSRPVRLDHTVVRERLLAKLSGANNFRLALITSPAGYGKTTLISQWAAGKNDIGWYSLDEGDNQQERFASYLIAAVQQATNGHCAICETMAQKRQYASLTSLFAQLFIELAEWHSPLYLVIDDYHLITNPVIHESMRFFIRHQPENLTLVVLSRNLPQLGIANLRVRDQLLEIGSQQLAFTHQEAKQFFDCRLSSPIEAAESSRICDDVSGWATALQLIALSARQNTHSAHKSARRLAGINASHLSDYLVDEVLDNVDLATRHFLLKSAILRSMNDALITRVTGEENGQMRLEEIERQGLFLQRMDDTGEWFCYHPLFGNFLRQRCQWELAAELPEIHRAAAESWMAQGFPSEAIHHALAAGDALMLRDILLNHAWSLFNHSELSLLEESLKALPWDSLLENPQLVLLQAWLMQSQHRYGEVNTLLARAEHEIKDIREDTMHAEFNALRAQVAINDGNPDEAERLAKLALEELPPGWFYSRIVATSVLGEVLHCKGELTRSLALMQQTEQMARQHDVWHYALWSLIQQSEILFAQGFLQTAWETQEKAFQLINEQHLEQLPMHEFLVRIRAQLLWAWARLDEAEASARSGIEVLSSYQPQQQLQCLAMLIQCSLARGDLDNARSQLNRLENLLGNGKYHSDWISNANKVRVIYWQMTGDKAAAANWLRHTAKPEFANNHFLQGQWRNIARAQILLGEFEPAEIVLEELNENARSLRLMSDLNRNLLLLNQLYWQAGRKSDAQRVLLDALKLANRTGFISHFVIEGEAMAQQLRQLIQLNTLPELEQHRAQRILREINQHHRHKFAHFDENFVERLLNHPEVPELIRTSPLTQREWQVLGLIYSGYSNEQIAGELEVAATTIKTHIRNLYQKLGVAHRQDAVQHAQQLLKMMGYGV
notes: MalT, E. coli, His-tagged version encoded by pOM206 (pET24a(+) derivative); Purified in two buffers (with ATP/KCl; or K3 citrate without nucleotide) to serve as control for the variants; Details of the plasmid are in the Supplementary Materials and Methods; also called wt MalT; wild-type MalT; source: E. coli pop8012 (a BL21 ΔmalT strain) with pOM206, purified (nickel-agarose chromatography, …)
binding [1]: no binding (condition: in the absence of maltotriose)
